# Results of single-concentration screens

Amino acid sequences for entries named in this document (tags omitted). Residues count along the entry.
UniProt P9WFT3, whole entry: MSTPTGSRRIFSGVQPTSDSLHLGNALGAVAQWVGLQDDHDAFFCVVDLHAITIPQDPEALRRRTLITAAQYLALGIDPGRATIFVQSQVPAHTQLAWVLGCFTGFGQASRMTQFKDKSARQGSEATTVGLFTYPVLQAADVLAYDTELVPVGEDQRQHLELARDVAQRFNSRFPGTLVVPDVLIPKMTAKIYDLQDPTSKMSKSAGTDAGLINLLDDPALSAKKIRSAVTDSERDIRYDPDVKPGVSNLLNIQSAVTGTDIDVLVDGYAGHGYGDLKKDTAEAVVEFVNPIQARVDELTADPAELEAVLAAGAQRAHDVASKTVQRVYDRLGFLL
UniProt P9WPC5, whole entry: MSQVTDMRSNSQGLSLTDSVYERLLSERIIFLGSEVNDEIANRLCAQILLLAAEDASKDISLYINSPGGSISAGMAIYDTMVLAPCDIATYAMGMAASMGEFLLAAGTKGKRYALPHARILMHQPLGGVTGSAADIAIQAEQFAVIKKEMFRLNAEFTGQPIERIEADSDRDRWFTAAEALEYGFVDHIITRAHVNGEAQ
UniProt P9WPC3, whole entry partner: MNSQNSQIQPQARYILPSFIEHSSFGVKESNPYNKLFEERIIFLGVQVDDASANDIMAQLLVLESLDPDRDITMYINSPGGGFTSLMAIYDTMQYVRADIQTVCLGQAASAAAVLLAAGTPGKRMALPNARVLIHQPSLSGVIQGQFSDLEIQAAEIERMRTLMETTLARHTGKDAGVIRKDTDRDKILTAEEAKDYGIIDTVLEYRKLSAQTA
UniProt Q4DA54, 1-478: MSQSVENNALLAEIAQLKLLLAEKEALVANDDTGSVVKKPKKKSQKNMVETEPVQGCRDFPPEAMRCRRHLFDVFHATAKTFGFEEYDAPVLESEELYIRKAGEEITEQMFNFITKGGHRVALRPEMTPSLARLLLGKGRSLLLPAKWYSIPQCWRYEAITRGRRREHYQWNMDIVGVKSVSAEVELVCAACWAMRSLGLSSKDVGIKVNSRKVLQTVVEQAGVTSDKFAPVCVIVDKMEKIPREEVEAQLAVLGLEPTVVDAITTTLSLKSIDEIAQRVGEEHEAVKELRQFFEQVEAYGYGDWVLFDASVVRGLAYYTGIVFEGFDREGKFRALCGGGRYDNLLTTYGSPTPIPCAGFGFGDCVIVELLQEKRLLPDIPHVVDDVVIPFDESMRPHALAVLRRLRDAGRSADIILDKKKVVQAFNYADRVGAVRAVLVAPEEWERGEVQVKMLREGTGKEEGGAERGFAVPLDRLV

A: 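Tryptophan-tRNA ligase, Mycobacterium tuberculosis (UniProt P9WFT3). Enzyme assay of tryptophanyl-tRNA synthetase; the read-out is not stated. Compounds at 10 µM. Higher most likely means stronger inhibition; the record gives no direction and few retests gave an IC50. Size under these conditions: about 65,000 compounds, about 64 of them at 50% or above in at least one test.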
B: 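Protease assay of ClpP1P2, read by the AMC dye that it sets free. Target: ClpP1P2, Mycobacterium tuberculosis (UniProt P9WPC5 and UniProt P9WPC3). Tested at 50 µM. Direction is inferred from only a few compounds that gave an IC50; most scored high, so higher reads as stronger inhibition. Most other retested compounds had strongly negative values. Of about 69,000 compounds tested this way, about 10 (0.015%) reached 50% or more in at least one test.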
C: 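Enzyme assay of histidyl-tRNA synthetase; the read-out is not stated. Target: Histidine-tRNA ligase, Trypanosoma cruzi CL Brener (UniProt Q4DA54). Concentration: 30 µM. Direction is inferred from retests: higher values go with stronger inhibition. Of about 69,000 compounds tested this way, about 31 (0.045%) reached 50% or more in at least one test.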

The filed quantity is “Percent Effect” (%). How 0% and 100% were set is not recorded. Most values in the screen are low, and negative values occur. This is an unselected part of the compounds tested. A dash means the value is not listed here; it may have been measured.

structure,A,B,C
CC(C)NC(=O)[C@@H]1CCO[C@@H]2CCN(c3ncccn3)C[C@H]21,-1.994,-1.531,2.703
Cc1cc(NC(=O)c2nc(N3CCCC3)ncc2Cl)nc(C(C)C)n1,1.313,0.7124,2.674
CC(=O)N1CCC2(CC1)CN(C(C)C)c1ccc(F)cc12,-,1.999,8.543
Cc1ccc(NC2CCN(C(=O)Cc3cccc(F)c3)CC2)nn1,-1.643,16.41,4.511
COCC(=O)N1CCC(O)(CN2CCN(c3ccccc3)CC2)C1 (stereo not given),0.3397,-1.013,4.615
COc1ccccc1CNC(=O)C(C)N1CC(n2nc(C)cc2C)C1 (stereo not given),-0.2463,-3.654,-3.571
OC(c1ccccc1)c1cn(C2CCN(Cc3nccs3)CC2)nn1 (stereo not given),-1.426,-1.574,6.154
CCOc1cc(=O)n2c(c1C(=O)OCc1ccc(F)cc1)CCCC2,-4.984,10.99,7.921
COc1cccc(CNc2cc(CO)ccc2Cl)c1,-3.461,-2.686,-1.961
CCc1ccc(CN2CC[C@H]3[C@H]2CC(=O)N3Cc2cccc(C)n2)o1,-3.151,-12.23,7.212
CC(=O)N(Cc1ncc(C)o1)C1CCN(CCc2cccs2)C1 (stereo not given),4.769,-24.71,10.98
Cc1ccc2c(ccn2CCC(=O)NC[C@@H]2CCCN3CCCC[C@H]23)c1,-2.814,1.325,1.639
COc1cccc(CN2CCC(c3nn(CCN)c4nccnc34)C2)c1 (stereo not given),-,-1.993,11.99
CCC(=O)N1CCCC1c1ccsc1 (stereo not given),0.8911,-15.01,4.911
O=C1NCC2(CCCN(C(=O)Cn3nc4ccccc4n3)CC2)O1 (stereo not given),-11.11,3.799,1.754
Cc1cc2nc(C(C)C)cc(N3CCN(c4ccc(O)cc4)CC3)n2n1,-2.488,-18.5,-0.9901
CCOC(=O)c1n[nH]cc1-c1cncn1CCn1nc(C)c(C)c1C,-2.196,-7.372,3.042
CCn1ccc(C(=O)Nc2ccc3c(c2)C(C)(C)C(=O)N3C)n1,0.4068,0.5263,3.727
Cc1ccsc1CCNC(C)C(=O)NC1CCCC1 (stereo not given),1.868,-4.532,6.494
Cc1cccc(C(=O)N2CCCCC2c2nc(C)cs2)n1 (stereo not given),-5.656,-11.77,5.143
C1CN(CC2CCOCC2)Cc2c(CN3CCOCC3)nnn2C1,-1.401,-5.774,8.743
CC(=O)N1CCCC(C(=O)NCCc2csc(-c3ccncc3)n2)C1 (stereo not given),2.13,-11.29,4.036
Cc1noc(C2CCC3(CCN(C(=O)c4cnccn4)CC3)O2)n1 (stereo not given),3.539,-5.932,7.477
Cc1ccc(NC2(C(=O)N3CCn4cncc4C3)CCCCC2)cc1C,9.545,-10.08,14.36
CN(C)[C@H]1CCCCN(C(=O)COCc2nc3cc(F)ccc3[nH]2)C1,-0.4666,-2.73,2.97
Cc1nnc(NC(=O)NCc2ccc(N3CCC(C)CC3)nc2)s1,0.7252,-25.45,6.286
Cc1nc(NC(=O)N2CCCC(C(C)(C)O)C2)nn1C (stereo not given),-4.755,-7.866,8.046
CN(CCn1nc2ccccn2c1=O)CC(=O)NC1CC1,-4.555,-6.542,2.174
Cn1ccc(C(=O)N2CCN(c3nccs3)CC2)cc1=O,-1.026,5.018,1.163
Fc1ccc(CN2CCC3(CCN(Cc4nccs4)CC3)C2)cc1,2.379,-3.517,9.195
Cc1c(-c2cc(-c3cnn(C)c3C)n(CC(=O)NC3CC3)n2)cnn1C,-5.616,4.836,3.96
Cc1nc2c(c(N[C@@H](CO)C(N)=O)n1)Cc1ccccc1OC2,7.957,-8.755,5.473
CN(Cc1nc(CS(C)(=O)=O)no1)c1ccccc1,-0.7389,-6.539,11.9
Cc1nc(C)c(C)c(N2C[C@@H](CN3CCCN(C)CC3)[C@@H](CO)C2)n1,-2.998,-4.189,3.804
Cc1cc(N(C)Cc2snnc2C)nc(-c2cccnc2)n1,-1.653,-0.228,3.247
CNC(=O)[C@@H](c1ccccc1OC)N1CCC[C@H]1C(=O)N1CCC1,0.6506,-5.787,5.473
CCN(C)CC1CCN(C(=O)Nc2ccc(C)cc2)C1 (stereo not given),-2.785,0.1843,-5.882
Cn1nccc1C(=O)N1CCOC(Cc2cccc(C(F)(F)F)c2)C1 (stereo not given),1.066,-9.164,6.224
N#CCCN(Cc1cccnc1)C(=O)c1ccc(OCC2CC2)cc1,2.437,0.2456,5.319
Cc1cccc(-c2noc(CN3CCCC3Cn3cccn3)n2)c1 (stereo not given),-4.983,-6.821,-0.3774
CC(=O)c1cccc(OCC(=O)NS(=O)(=O)c2cccs2)c1,-3.553,-8.577,6.286
CCCc1nc(CN(CC)C(=O)c2ccc(S(C)(=O)=O)cc2)no1,5.197,-19.29,-0.431
O=C(CNc1nc(C(F)(F)F)cs1)N1CCc2sccc2C1,-0.3812,-10.3,3.448
COC(=O)c1ccoc1CN(C)CC(=O)NC1CC1,2.725,11.1,10.05
CCN1CC(C(=O)N2CC(Oc3ccccc3Cl)C2)CC1=O (stereo not given),-1.347,-7.717,3.061
Cc1nnc(CN2CCC3(CCC(=O)N([C@H]4CC[C@H](O)CC4)C3)CC2)o1,0,-2.376,10.24
COCC1CN(C(=O)Cc2cccs2)Cc2c1cnn2C (stereo not given),9.174,8.258,10.2
CC(=O)Nc1nc2c(s1)C(C)(C)Nc1ccccc1S2,-,-5.008,-16.95
Cc1occc1C(=O)N1CCc2c(CNc3ncccn3)cncc2C1,2.058,-3.549,6.897
CCOCC(=O)N1CCCn2c(nnc2Cn2cccc2)C1,0.4122,17.04,-43.22
Cc1cc(C[C@@H]2COC[C@@H]2NC(=O)CN2CCCCCC2)on1,-3.119,11.75,2.618
Cc1nc(C)c(C(=O)Nc2cc(N3CCC(C)CC3)ncn2)s1,2.603,-8.839,6.341
Cc1nc(NCC23CCCN2CCC3)cc(C2CCCNC2)n1 (stereo not given),-1.083,-10.88,1.064
C[C@H]1C[C@@H]2CCN(C(=O)c3cnccn3)C[C@H]2O1,-2.351,13.92,-3.659
Cc1nnc(CN(C)CC2CCCN2c2cccnn2)o1 (stereo not given),-0.6595,-9.641,3.333
CN(Cc1ccccc1)CC1(O)CCCN(Cc2ccc(F)cc2)C1=O (stereo not given),6.493,-24.91,1.339
Cc1n[nH]c(C)c1CN1CC[C@@H]2[C@@H](CCC(=O)N2CCc2c[nH]cn2)C1,-2.155,-9.681,4.082
Cc1nc(N2CCOCC2)ncc1-c1cc(O)nc(N2CCCCC2)n1,-0.6477,-10.62,-2.609
CCC(C)(CO)NC(=O)Nc1cc2c(cc1SC)OCCO2 (stereo not given),-3.633,-4.035,1.087
COc1ccc(OC)c(NC(=O)NCC(O)c2ccc(F)c(F)c2)c1 (stereo not given),2.047,18.07,2.632
COc1ccc(C)cc1CN(Cc1nc(C)c(C)o1)C1CCN(C)C1 (stereo not given),-3.511,-7.961,10.92
CNc1cc(N2CCCC2CNCc2cccc(C#N)c2)ncn1 (stereo not given),3.422,-14.86,4.933
CC(=O)Nc1cccc2c1ccn2CC(=O)NC(C)C,5.376,-4.11,8
CCCN1CCC(c2nc3ccc(-c4ccccc4)cn3n2)CC1,-,-14.3,7.538
O=C(O)CC1CN(Cc2ccccc2)CCO1 (stereo not given),2.251,-5.304,5.882
Cn1cc(CN2C[C@@H](NC(=O)c3cscn3)[C@H]3OCCC[C@H]32)cn1,3.255,-8.165,4.902
COc1cccc(Cn2c(=O)n(C)c(=O)c3sccc32)c1,-3.076,-9.367,5.366
C=C(C)COc1cccc(C(=O)N(CC)Cc2noc(C)n2)c1,0.301,-18.44,0.9804
CCc1nsc(N2CCCN(CC(=O)N(C)C3CC3)CC2)n1,-0.6803,-15.35,-1.786
O=C(CN1CCc2ccccc2C1)NCc1ccco1,6.893,10.05,5.882
CN(C(=O)CCNC(=O)C1COc2ccccc21)c1ccccc1 (stereo not given),0.8974,-13.56,6.173

Once more, the final 5:

* COc1cccc(Cn2c(=O)n(C)c(=O)c3sccc32)c1 | A: -3.076%; B: -9.367%; C: 5.366%
* C=C(C)COc1cccc(C(=O)N(CC)Cc2noc(C)n2)c1 | A: 0.301%; B: -18.44%; C: 0.9804%
* CCc1nsc(N2CCCN(CC(=O)N(C)C3CC3)CC2)n1 | A: -0.6803%; B: -15.35%; C: -1.786%
* O=C(CN1CCc2ccccc2C1)NCc1ccco1 | A: 6.893%; B: 10.05%; C: 5.882%
* CN(C(=O)CCNC(=O)C1COc2ccccc21)c1ccccc1 (stereo not given) | A: 0.8974%; B: -13.56%; C: 6.173%

The values are deposited in ChEMBL (CHEMBL3988442, “University of Dundee, Small-Polar-MMV Screening Library” (2021)).